Measured data: PubChem BioAssay AID1259425 (University of Nebraska Medical Center, 2018)

- Purpose: 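Seek colon cancer weak points whose silencing resembles KSR1 loss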 (primary screen)
- System: HCT116 human colon cancer cells
- Reagent: siRNA pool against human genes, 50 nM siRNA
- Measurement: 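After 50 nM siRNA pool, branched-DNA assay measures six marker transcripts per well, minus blank, normalised to the geometric mean of two housekeeping transcripts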
- Direction: BNIP3L mRNA: higher = more BNIP3L transcript after knockdown
In all, the deposit lists about 14,000 reagents; shown is a part drawn at random. Further read-outs or replicates are left out here. Reagent sequences are not shown. Not given: the time to read-out.

Gene,"BNIP3L mRNA, set 1"
SCT,0.121
MPL,0.106
RPL14,0.165
TESK2,0.162
PEG3,0.107
GYS2,0.134
SLC35D4,0.127
NCOA7,0.157
TPK1,0.197
NEK8,0.149
POLR2F,0.107
BCCIP,0.114
MRPS5,0.0987
CCDC86,0.088
USP42,0.0558
SEC61A2,0.116

The list goes on (7 carried over from the part before).
Gene,"BNIP3L mRNA, set 1"
NEK8,0.149
POLR2F,0.107
BCCIP,0.114
MRPS5,0.0987
CCDC86,0.088
USP42,0.0558
SEC61A2,0.116
IRAG2,0.0981
KLF10,0.143
N4BP2,0.0804
ARHGAP20,0.194
CNN2,0.129
TAF6L,0.0518
CENPA,0.118
DEF6,0.0848
MAP3K7,0.131
NPHP3,0.0266
RAB5A,0.0991
DUX4L8,0.0545
ALDH6A1,0.0776
MBOAT7,0.07
GRM5,0.151
TTC13,0.174
RHOA,0.147
ABCD2,0.145
ADD1,0.162
CCND3,0.0786
LGR4,0.224
PIEZO1,0.0128
BLK,0.221
CEACAM5,0.05
SUCNR1,0.114
RXRG,0.0524
PITPNM1,0.0631
KIR2DL5A,0.0845
IER5,0.14
SRGAP1,0.107
HRH3,0.216
TTC39A,0.0356
RPN2,0.0639
SARM1,0.172
